Results reported in patent publication US20030162221A1.
Results are given in words; binding and its absence hold for the method and conditions named. In cells and extracts the contact can be indirect. Some results given as binding are weak or reduced against the parent protein; the word gives no strength. Sequences can lack the tags named with a protein.

Target: T1, Irr1 (Saccharomyces cerevisiae) (UniProt P40541)
T1 sequence (looked up): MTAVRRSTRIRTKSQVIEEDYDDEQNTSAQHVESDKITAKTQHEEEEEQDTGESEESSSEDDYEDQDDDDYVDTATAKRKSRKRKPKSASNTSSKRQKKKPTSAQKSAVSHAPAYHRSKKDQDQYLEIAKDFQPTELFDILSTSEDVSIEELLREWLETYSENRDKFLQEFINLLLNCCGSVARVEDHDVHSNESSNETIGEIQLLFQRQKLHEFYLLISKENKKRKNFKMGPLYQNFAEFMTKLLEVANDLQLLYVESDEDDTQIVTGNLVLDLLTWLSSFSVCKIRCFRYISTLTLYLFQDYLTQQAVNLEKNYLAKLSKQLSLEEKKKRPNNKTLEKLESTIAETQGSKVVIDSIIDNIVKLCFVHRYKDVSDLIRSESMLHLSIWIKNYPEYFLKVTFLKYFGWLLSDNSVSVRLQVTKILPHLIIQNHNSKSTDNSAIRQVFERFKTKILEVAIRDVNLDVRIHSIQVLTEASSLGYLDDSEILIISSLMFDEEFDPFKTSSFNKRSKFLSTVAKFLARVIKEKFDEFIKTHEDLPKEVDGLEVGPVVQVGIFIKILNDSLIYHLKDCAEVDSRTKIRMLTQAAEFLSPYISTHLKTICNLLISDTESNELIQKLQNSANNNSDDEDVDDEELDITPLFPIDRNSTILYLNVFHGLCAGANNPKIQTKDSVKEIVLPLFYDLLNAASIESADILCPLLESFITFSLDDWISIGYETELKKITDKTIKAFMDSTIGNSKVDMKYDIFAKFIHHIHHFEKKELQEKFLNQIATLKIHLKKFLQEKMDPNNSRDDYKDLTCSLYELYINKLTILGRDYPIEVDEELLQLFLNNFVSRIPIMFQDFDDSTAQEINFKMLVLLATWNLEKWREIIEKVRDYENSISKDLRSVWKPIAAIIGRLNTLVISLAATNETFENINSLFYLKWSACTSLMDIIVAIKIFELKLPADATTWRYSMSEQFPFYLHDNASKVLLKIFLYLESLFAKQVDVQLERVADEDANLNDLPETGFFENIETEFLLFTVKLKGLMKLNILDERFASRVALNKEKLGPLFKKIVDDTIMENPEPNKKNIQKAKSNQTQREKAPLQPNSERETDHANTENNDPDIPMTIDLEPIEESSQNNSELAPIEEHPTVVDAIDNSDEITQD
Assay: anti-FLAG co-IP, LC-MS/MS

binding: binds
B1: Cdc5 (protein, Saccharomyces cerevisiae, UniProt P32562 1-705, looked up)
chain: MSLGPLKAINDKQLNTRSKLVHTPIKGNTADLVGKENHFKQTKRLDPNNDHHHQPAQKKKREKLSALCKTPPSLIKTRGKDYHRGHFLGEGGFARCFQIKDDSGEIFAAKTVAKASIKSEKTRKKLLSEIQIHKSMSHPNIVQFIDCFEDDSNVYILLEICPNGSLMELLKRRKVLTEPEVRFFTTQICGAIKYMHSRRVIHRDLKLGNIFFDSNYNLKIGDFGLAAVLANESERKYTICGTPNYIAPEVLMGKHSGHSFEVDIWSLGVMLYALLIGKPPFQARDVNTIYERIKCRDFSFPRDKPISDEGKILIRDILSLDPIERPSLTEIMDYVWFRGTFPPSIPSTVMSEAPNFEDIPEEQSLVNFKDCMEKSLLLESMSSDKIQRQKRDYISSIKSSIDKLEEYHQNRPFLPHSLSPGGTKQKYKEVVDIEAQRRLNDLAREARIRRAQQAVLRKELIATSTNVIKSEISLRILASECHLTLNGIVEAEAQYKMGGLPKSRLPKIKHPMIVTKWVDYSNKHGFSYQLSTEDIGVLFNNGTTVLRLADAEEFWYISYDDREGWVASHYLLSEKPRELSRHLEVVDFFAKYMKANLSRVSTFGREEYHKDDVFLRRYTRYKPFVMFELSDGTFQFNFKDHHKMAISDGGKLVTYISPSHESTTYPLVEVLKYGEIPGYPESNFREKLTLIKEGLKQKSTIVTVD
